Measurements published in PubChem BioAssay AID624291 (National Center for Advancing Translational Sciences (NCATS), 2012).
In all, about 350,000 compounds went through this assay and about 220 (0.063%) were called active. Inconclusive results, whose numbers are uncertain, are shown with a selection of clear calls. Calls follow the shape of the dose curve; as a rule, active = well fitted activation curve with a large enough effect; inconclusive = small, poorly fitted or top-dose-only effect; inactive = no such curve, though single readings can be large or run the other way. Potencies of inconclusive entries are doubtful fits and often do not repeat.

experiment: qHTS for Activators of Integrin-Mediated Alleviation for Muscular Dystrophy; details: alpha7betagal myoblasts, beta-gal FDG fluorescence, 48 h; activation: at 38.3 µM (top of the series); also: nearly all actives have a fitted effect of over 60% in size;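 as to activation: 100% = response of the positive control SU9516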
Summary of the method: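 Alpha7betagal+/- myoblasts (passage 13) were plated 16-24 hr, then exposed to compounds (1:260 dilution of DMSO stock) for 48 hours at 37C. After MPER lysis, β-galactosidase reporter activity was read as FDG fluorescence (ex 480/em 540) after 30 minutes.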
Potency is read from the fitted curve at half-maximal effect.

Row | SMILES | Potency | activation
1 | COc1ccc(Cl)cc1NC(=O)CSc1nc(NS(=O)(=O)c2ccc(C)cc2)cc(=O)[nH]1 | inconclusive: 3.16 µM [activator, single point] | 
2 | CCCCOc1ccc(Br)cc1CSC(=N)N |  | inactive: -70.3%
3 | CCN(CCCNS(=O)(=O)c1cc(-c2cc(C)no2)ccc1C)Cc1ccccc1 | inconclusive: 3.16 µM [activator, single point] | 
4 | O=C(NCC(c1ccco1)N1CCOCC1)c1c(F)cccc1F (stereo not given) |  | inactive: 18.1%
5 | O=C(CNC(=O)Cc1ccccc1)NCC(=O)N1CCN(C(c2ccccc2)c2ccccc2)CC1 | inconclusive: 4.47 µM [activator, single point] | 
6 | CC(C)Sc1cc(Cl)nc(NC(=O)Nc2ccccc2)n1 | inconclusive: 0.891 µM [activator, single point] | 
7 | COc1ccc(NC(=O)c2cc(-c3ccccc3)nc3c2cnn3C(C)C)cc1 | inconclusive: 3.55 µM [activator, single point] | 
8 | CCc1ccc(CNC(=O)C(=O)NCC2CCCO2)cc1 (stereo not given) | inconclusive: 17.8 µM [activator, single point] | 
9 | Cc1oc(-c2cc(F)ccc2F)nc1CN1CCCN(C(=O)c2ccco2)CC1 |  | inactive: -4.3%
10 | Cc1ccc(OCC(=O)NC(=S)Nc2ccc(Br)c(C)n2)cc1 | inconclusive: 2.51 µM [activator, single point] | 
11 | Cc1ccccc1C(=O)NCC(=O)c1ccccc1 | inconclusive: 5.01 µM [activator, single point] | 
12 | N/C(=N\OC(=O)CC(c1ccccc1)c1ccccc1)c1cccnc1 | inconclusive: 3.55 µM [activator, partial curve, poor fit] | 
13 | COc1cccc(NS(=O)(=O)c2ccc(-c3coc(C)n3)cc2)c1 | inconclusive: 3.55 µM [activator, single point] | 
14 | Cc1ccc(N(C)S(=O)(=O)c2cccc(C(=O)NC3CC(C)(C)NC(C)(C)C3)c2)cc1 |  | inactive: -17%
15 | Cc1cc(C(=O)NNC(=S)NCc2ccccc2)no1 | inconclusive: 12.6 µM [activator, single point] | 
16 | CC1CN(C(=O)c2cc(F)c(F)cc2Cl)CC(C)O1 (stereo not given) | inconclusive: 3.16 µM [activator, single point] | 
17 | S=c1[nH]nc(-c2ccc(Br)cc2)n1-c1ccc(Br)cc1 | inconclusive: 28.2 µM [activator, single point] | 
18 | COc1ccc(C2(O)CCN(Cc3nnnn3Cc3ccc(C)cc3)CC2)cc1 | inconclusive: 1.26 µM [activator, partial curve, poor fit] | 
19 | Cc1ccc(NC(=O)c2cc(-c3cc(C)c(C)cc3O)n[nH]2)cc1C | inconclusive: 3.98 µM [activator, single point] | 
20 | COc1ccc(NC(=O)CSc2nnc(Cc3cccs3)n2-c2ccc(C)cc2)cc1 |  | inactive: -26.9%
21 | CCCCOc1cccc(C(=O)Nc2ccc(S(=O)(=O)Nc3nnc(CC)s3)cc2)c1 | inconclusive: 3.16 µM [activator, full curve, poor fit] | 
22 | CN(NC(=O)c1ccco1)c1nc2ccccc2nc1C(F)(F)F |  | inactive: -10.3%
23 | C1CN=C(NC23CC4CC(CC(C4)C2)C3)C1 | inconclusive: 2.51 µM [activator, partial curve, poor fit] | 
24 | Cc1cccc(N2CCN(C(=O)c3cc4c(=O)n(C)c5ccccc5c4n3C)CC2C)c1 (stereo not given) |  | inactive: -20%
25 | CCC(C)(C)NC(=O)C(c1ccc(OC)cc1)N(C(=O)CCC(=O)Nc1cc(C)on1)c1cccc(OC)c1 (stereo not given) | inconclusive: 5.01 µM [activator, single point] | 

Row | SMILES | Potency | activation
26 | O=C(Nc1ccc([N+](=O)[O-])cc1)c1cc(Cl)sc1Cl | inconclusive: 3.16 µM [activator, full curve, poor fit] | 
27 | Cc1ccc(NC(=S)N2CCN(Cc3ccc4c(c3)OCO4)CC2)c(C)c1 |  | inactive: 4.28%
28 | COCCNC(=O)c1c(N)n(-c2ccccc2)c2nc3ccccc3nc12 |  | inactive: 20.3%
29 | COc1ccc(C(=O)CSc2nnc(C3CCCCC3)n2N)c(OC)c1 |  | inactive: -13.4%
30 | S=c1nc[nH]c2c1cnn2-c1ccccc1 |  | inactive: -3.88%
31 | CCOc1ccc(N2C(=O)CC(NCc3ccc(S(N)(=O)=O)cc3)C2=O)cc1 (stereo not given) | inconclusive: 3.98 µM [activator, single point] | 
32 | O=C1c2cccc3c(N4CCCCC4)ccc(c23)C(=O)N1c1cccc(O)c1 | inconclusive: 28.2 µM [activator, single point] | 
33 | CC1CN(C(=O)/C(C#N)=C2\N=C(NC(=O)c3ccc(F)cc3)c3ccccc32)CC(C)O1 (stereo not given) | inconclusive: 28.2 µM [activator, single point] | 
34 | CCCCCCC(=O)O |  | inactive: 1.38%
35 | Cc1cc(N2C(=O)C3C4CCC(C4)C3C2=O)no1 (stereo not given) | inconclusive: 20 µM [activator, single point] | 
36 | O=[N+]([O-])c1cc(S(=O)(=O)O)cc([N+](=O)[O-])c1NN(c1ccccc1)c1ccccc1 | inconclusive: 5.62 µM [activator, partial curve] | 
37 | COc1ccc(NC(=O)C2CCCN(C(=O)Nc3cccc(OC)c3)C2)cc1 (stereo not given) | inconclusive: 0.447 µM [activator, partial curve, poor fit] | 
38 | COc1ccc2c(C)c(Cl)c(=O)oc2c1 |  | inactive: 0.785%
39 | O=C1CCC(C(=O)OCc2cc(=O)oc3ccc4ccccc4c23)=NN1 | inconclusive: 5.01 µM [activator, single point] | 
40 | CC1CCN(c2nc3ccc(C(=O)NCCCN4CCCCC4C)cc3s2)CC1 (stereo not given) |  | inactive: -51.2%
41 | CN1C(CCl)Nc2cc(Cl)c(S(N)(=O)=O)cc2S1(=O)=O (stereo not given) |  | inactive: 14.9%
42 | CNc1ccc(Cl)nn1 | inconclusive: 5.01 µM [activator, single point] | 
43 | NC(=O)NOCc1cccc(Cl)c1 | inconclusive: 0.398 µM [activator, partial curve, poor fit] | 
44 | Cn1c(N)c(C(=O)COC(=O)c2cccnc2Cl)c(=O)n(C)c1=O |  | inactive: -16.9%
45 | CCC(=O)Oc1oc(-c2ccccc2)nc1C=Nc1ccc(C)cc1 |  | inactive: -10.4%
46 | CCn1nc(NS(=O)(=O)c2cccc3nonc23)c2cc3ccc(C)cc3nc21 |  | inactive: 1.1%
47 | Cn1nc(C(F)(F)F)c(-c2ccc(F)cc2)c1NC(=O)CSCC(=O)O | inconclusive: 12.6 µM [activator, single point] | 
48 | Nc1nc2c3ccccc3nc(C3CC3)n2n1 |  | inactive: -20.9%
49 | COc1ccc(N(C(=O)CNC(=O)c2ccco2)C(C(=O)NC2CCCC2)c2ccc(C)o2)cc1 (stereo not given) |  | inactive: 7.59%
50 | COC(=O)c1sccc1N(C)S(C)(=O)=O |  | inconclusive: 71.7% [activator]

Row | SMILES | Potency | activation
51 | CCCCC(C(=O)NC1CCCC1)N(C(=O)c1snc(C(N)=O)c1N)c1ccc(C)cc1 (stereo not given) | active: 10 µM | 
52 | Cn1c(CNC(=O)c2ccc(Cl)cc2)nnc1SCC(=O)N1CCOCC1 | inconclusive: 5.01 µM [activator, partial curve, poor fit] | 
53 | CCN(c1ccc(OCC(=O)OCC(=O)Nc2ccc(F)c(F)c2F)cc1)S(=O)(=O)c1ccccc1 | inconclusive: 14.1 µM [activator, single point] | 
54 | COc1cccc(C(=O)Nc2cccc(SC)c2)c1 |  | inactive: -18.1%
55 | O=C(/C=C/c1ccccc1)Nc1cc(C(=O)O)cc(C(=O)O)c1 | inconclusive: 5.01 µM [activator, single point] | 
56 | CCOC(=O)N1CCN(C(=S)NC(=O)/C=C/c2ccc(C)cc2)CC1 | inconclusive: 28.2 µM [activator, single point] | 
57 | CCN(CCO)c1nc(NCc2ccccc2)c2cnn(C)c2n1 | inconclusive: 5.01 µM [activator, single point] | 
58 | Cc1sc2nc(CN3CCOCC3)nc(NCCc3ccccc3)c2c1C |  | inactive: -5.94%
59 | COC(=O)c1ccc(-c2noc(CN(Cc3nccn3C)C(C)C)n2)cc1 |  | inactive: -22.7%
60 | CCS(=O)(=O)N1Cc2ccccc2CC1C(=O)Nc1nc(C)cs1 (stereo not given) |  | inactive: 1.22%
61 | COc1ccc(C(C#N)=Cc2cccc(OC)c2OC)cc1 |  | inactive: -34.4%
62 | CC(C)(C)NC(=O)c1cccc2c1C(=O)c1ccccc1-2 | inconclusive: 1.12 µM [activator, partial curve, poor fit] | 
63 | CC(C)CNC(=O)COc1ccccc1[N+](=O)[O-] | inconclusive: 11.2 µM [activator, single point] | 
64 | COc1ccc(-c2cc3nc(C)cc(N4CC(C)CC(C)C4)n3n2)cc1 (stereo not given) |  | inactive: 1.7%
65 | CCOc1ccc(/C=N/NS(=O)(=O)c2ccc(C)cc2)cc1OC | inconclusive: 0.316 µM [activator, partial curve, poor fit] | 
66 | Cc1cc(C)cc(OC(C)C(=O)Nc2ccc(S(=O)(=O)Nc3cc(C)nc(C)n3)cc2)c1 (stereo not given) | inconclusive: 2.51 µM [activator, partial curve, poor fit] | 
67 | O=C(CCc1ccccc1)NC(=S)Nc1cc(C(F)(F)F)ccc1N1CCOCC1 |  | inactive: -48.8%
68 | CC(C)(C)S(=O)(=O)c1cnc(-c2ccc(Cl)cc2)nc1N |  | inactive: 1.94%
69 | COc1cccc(Oc2ccc(N)cn2)c1 |  | inactive: -3.6%
70 | Cc1c([N+](=O)[O-])oc2c1C(=O)NCCC2 |  | inactive: 10.4%
71 | CCOc1ccccc1NS(=O)(=O)c1cc2c3c(c1)CC(=O)N3CCC2 | inconclusive: 28.2 µM [activator, single point] | 
72 | Cc1cc(C)cc(C(=O)NCC(=O)N2CCN(C(c3ccccc3)c3ccccc3)CC2)c1 | inconclusive: 15.8 µM [activator, single point] | 
73 | O=C(CCc1nnc(-c2ccsc2)o1)N1CCc2c(Cl)cccc2C1 |  | inactive: -10%
74 | Cc1ccc(S(=O)(=O)Nc2cccc3cccnc23)c([N+](=O)[O-])c1 |  | inactive: -57.3%
75 | Cc1cc(NC(=O)c2ccc(Cl)cc2Cl)no1 | active: 1.41 µM | 

Pulled by structure from above:
Row | SMILES | Potency | activation
5 | O=C(CNC(=O)Cc1ccccc1)NCC(=O)N1CCN(C(c2ccccc2)c2ccccc2)CC1 | inconclusive: 4.47 µM [activator, single point] | 
66 | Cc1cc(C)cc(OC(C)C(=O)Nc2ccc(S(=O)(=O)Nc3cc(C)nc(C)n3)cc2)c1 (stereo not given) | inconclusive: 2.51 µM [activator, partial curve, poor fit] | 
33 | CC1CN(C(=O)/C(C#N)=C2\N=C(NC(=O)c3ccc(F)cc3)c3ccccc32)CC(C)O1 (stereo not given) | inconclusive: 28.2 µM [activator, single point] | 
30 | S=c1nc[nH]c2c1cnn2-c1ccccc1 |  | inactive: -3.88%
48 | Nc1nc2c3ccccc3nc(C3CC3)n2n1 |  | inactive: -20.9%
